# Assay results published in PubChem BioAssay AID624297 (National Center for Advancing Translational Sciences (NCATS), 2012).
# Out of some 340,000 compounds screened, about 6,200 (1.8%) were called active. The inconclusive results got no clear call from the source; some entries with a clear call stand among them for comparison. The call rests on the fitted dose curve; in most records, active means well fitted activation curve with a large enough effect; inconclusive means small, poorly fitted or top-dose-only effect; inactive means no such curve, though single readings can be large or run the other way. Potencies of inconclusive entries are doubtful fits and often do not repeat.
# Test: A quantitative high throughput screen for small molecules that induce DNA re-replication in SW480 colon adenocarcinoma cells. Further: nearly all actives have a fitted effect of over 55% in size. On re-replication activation: % of control where 0% means no effect.
# Conditions: Hoechst DNA content imaging, 48 h; re-replication activation: at 46.1 µM (top of the series) unless noted
# Method in brief: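 Treated cells incubate 48 hr (37 C, 5% CO2), are stained 40 min with Hoechst, and nuclear fluorescence is enumerated; a rise in nuclei with high DNA signal marks re-replication.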
# Potency means the concentration at half of the fitted maximal effect.
SMILES,Potency,re-replication activation
O=C(N/N=C/c1ccccc1)c1[nH]c2ccc(Br)cc2c1-c1ccccc1,"inconclusive: 2.06 µM [activator, full curve, poor fit]",–
O=C(O)CN1C(=O)/C(=C\c2cn(-c3ccccc3)nc2-c2ccccc2)SC1=S,"inconclusive: 0.13 µM [activator, full curve, poor fit]",–
COc1ccc(NS(=O)(=O)c2ccc(NC(=O)c3ccc(CN4CCOCC4)cc3)cc2)cc1,"inconclusive: 2.06 µM [activator, partial curve, poor fit]",–
Cc1cccc(C)c1NS(=O)(=O)c1ccc(-c2cnc(C3CC3)o2)cc1,–,inconclusive: -6.88% [activator]
Cn1c(SCc2cccc(C#N)c2)nc2ccccc2c1=O,"inconclusive: 29.1 µM [activator, single point]",–
O=C(COc1ccc(Cl)cc1Cl)NCCSc1ccc(Cl)cc1,"inconclusive: 29.1 µM [activator, single point]",–
Brc1ccc(-c2csc(N3CCC(c4ccccc4)C3)n2)cc1 (configuration not stated),inactive,–
O=C1NS(=O)(=O)c2ccccc21,inconclusive: 0.0008 µM [activator],–
COc1ccc(-c2cc(C(=O)Nc3ccc(C)c(N)c3)c3ccccc3n2)cc1,"inconclusive: 16.4 µM [activator, partial curve]",–
c1ccc(-c2cc(-c3nnc4n3N=C(c3ccc5ccccc5c3)CS4)[nH]n2)cc1,"inconclusive: 29.1 µM [activator, single point]",–
CCc1ccc(S(=O)(=O)Nc2c(NC3CCCCC3)c3ccccc3oc2=O)cc1,"inconclusive: 20.6 µM [activator, single point]",–
COc1cc(C2c3cc4c(cc3OC(N3CCCC3)C2C)OCO4)cc(OC)c1O (configuration not stated),"inconclusive: 29.1 µM [activator, single point]",–
O=C1N/C(=C/c2ccc(N3CCCC3)cc2)C(=O)N1c1ccccc1,"inconclusive: 8.2 µM [activator, partial curve, poor fit]",–
Cc1c(CN2CCCC(CO)(Cc3cccc(Cl)c3)C2)cnn1C (configuration not stated),inactive,–
O=C(CSc1nc2ccccc2s1)NNC(=S)Nc1ccccc1,"inconclusive: 16.4 µM [activator, single point]",–
CC1CCCC(C)N1C(=O)c1cc(-c2ccc3c(c2)OCO3)on1 (configuration not stated),"inconclusive: 1.46 µM [activator, full curve, poor fit]",–
Clc1cc(Br)ccc1OCCCNCc1ccccc1,"inconclusive: 29.1 µM [activator, single point]",–
CNC(=O)c1ccc(-c2sc3nc(N4CCOCC4)c4c(c3c2N)CC(C)(C)OC4)o1,"inconclusive: 3.66 µM [activator, single point]",–
C=CCOc1c(CNn2nnnc2N)cccc1OC,inactive,–
N#Cc1c(-c2ccc(F)cc2)c2c([nH]c1=O)-c1ccccc1OC2,active: 6.51 µM,–
O=C(CSc1nnc(COc2ccccc2)n1-c1ccccc1)c1cccs1,"inconclusive: 18.4 µM [activator, single point]",–
Cc1ccc(S(=O)(=O)NC(CC(=O)NCC2CCCO2)c2ccco2)cc1 (configuration not stated),–,inconclusive: 83.3% [activator]
COc1ccc(/C=C/C(=O)NC(=S)NCc2ccccc2)cc1OC,active: 23.1 µM,–

# Of the compounds above, three contain bromine:
SMILES,Potency,re-replication activation
O=C(N/N=C/c1ccccc1)c1[nH]c2ccc(Br)cc2c1-c1ccccc1,"inconclusive: 2.06 µM [activator, full curve, poor fit]",–
Brc1ccc(-c2csc(N3CCC(c4ccccc4)C3)n2)cc1 (configuration not stated),inactive,–
Clc1cc(Br)ccc1OCCCNCc1ccccc1,"inconclusive: 29.1 µM [activator, single point]",–

# Another view of 2 compounds above.
SMILES	Potency	re-replication activation
Cn1c(SCc2cccc(C#N)c2)nc2ccccc2c1=O	inconclusive: 29.1 µM [activator, single point]	–
O=C(COc1ccc(Cl)cc1Cl)NCCSc1ccc(Cl)cc1	inconclusive: 29.1 µM [activator, single point]	–

# Additional entries

SMILES,Potency,re-replication activation
COc1cccc(C2c3cc4c(cc3OC(N3CCOCC3)C2C)OCO4)c1O (configuration not stated),"inconclusive: 20.6 µM [activator, single point]",–
Cc1ccc(S(=O)(=O)N2CCN(C(=O)c3c(-c4ccccc4)noc3C)CC2)c(C)c1,inactive,–
O=C1CSC2(C(=O)N3CCCc4cccc2c43)N1c1cccc(C(F)(F)F)c1 (configuration not stated),inactive,–
CCOC(=O)CCCCC(=O)c1[nH]c(=O)[nH]c1CSc1nc(C)cc(C)n1,inactive,–
Cc1cccc(NC(=O)Nc2ccc(C#N)cc2)n1,"inconclusive: 9.2 µM [activator, partial curve]",–
COc1ccc(C(=O)COC(=O)c2ccc(NC(=O)c3ccccc3)cc2)cc1,"inconclusive: 18.4 µM [activator, partial curve, poor fit]",–
Fc1ccc(Nc2nnc(C(F)(F)F)s2)cc1Cl,"inconclusive: 18.4 µM [activator, single point]",–
Cc1cccc(N2CCN(C(=O)c3ccccc3OCc3c(C)noc3C)CC2)c1C,"inconclusive: 25.9 µM [activator, single point]",–
COC(=O)[C@@]1(Cc2ccc(OC)cc2)[C@@H]2C(=CC(=O)[C@H]2CC(=O)C(=O)N(C)C)CN1C(=O)c1ccccc1,"inconclusive: 29.1 µM [activator, single point]",–
Cc1noc(C)c1S(=O)(=O)N(C)C[C@H]1Oc2ccc(NS(=O)(=O)c3cn(C)cn3)cc2C(=O)N([C@H](C)CO)C[C@@H]1C,"inconclusive: 0.651 µM [activator, full curve, poor fit]",–
Cc1ccc(Cn2c(=N)c(C(=O)NCC3CCCO3)cc3c(=O)n4cccc(C)c4nc32)cc1 (configuration not stated),active: 8.2 µM,–
NC(=O)CSc1nnc(-c2cnccn2)n1Cc1ccco1,"inconclusive: 6.51 µM [activator, single point]",–
CCCNC(=O)c1cccc(COc2ccccc2OC)c1,"inconclusive: 6.51 µM [activator, single point]",–
CSc1ccc(NC(=O)NCc2cccnc2)cc1,inactive,–
Cc1cc(C)cc(NC(=S)NC2CC3CCCC(C2)N3C2CC2)c1 (configuration not stated),"inconclusive: 0.366 µM [activator, full curve, poor fit]",–
O=C(CCN1C(=O)C2CCCCC2C1=O)Nc1ccc(Br)cc1F (configuration not stated),"inconclusive: 0.259 µM [activator, full curve, poor fit]",–
O=[N+]([O-])c1ccc(N2CCN(Cc3ccccc3)CC2)s1,inactive,–
O=S(=O)(/C=C/c1ccccc1)N1CCN(Cc2ccccc2)CC1,"inconclusive: 2.31 µM [activator, partial curve, poor fit]",–
COc1cccc(NC(=O)CN(C)C(=O)/C=C/c2cn(Cc3ccccc3)nc2-c2cccnc2)c1,active: 14.6 µM,–
O=C(NCc1ccc(F)cc1)C1CCN(S(=O)(=O)c2cccnc2)CC1,"inconclusive: 3.66 µM [activator, single point]",–
C(=Cc1c[nH]c2ccccc12)c1ccc2ccccc2n1,"inconclusive: 0.092 µM [activator, full curve, poor fit]",–
CCc1ccc(-c2cc(C(F)(F)F)n3nc(C(=O)Nc4c(C)nn(Cc5ccc(F)cc5)c4C)cc3n2)s1,active: 8.2 µM,–
Cc1ccc(-n2cc(S(=O)(=O)c3ccc(C)cc3)[nH]c2=O)cc1,"inconclusive: 4.61 µM [activator, partial curve, poor fit]",–

SMILES,Potency,re-replication activation
COc1ccc(-n2nc(C(=O)NCC(=O)NCCCN3CC(C)CC(C)C3)c3ccccc3c2=O)cc1Cl (configuration not stated),"inconclusive: 29.1 µM [activator, single point]",–
CCC(C(=O)NCCc1ccccc1)c1ccccc1 (configuration not stated),"inconclusive: 23.1 µM [activator, partial curve, poor fit]",–
Cc1cccc(-c2nnc3n2N=C(c2ccccc2Br)CS3)c1,"inconclusive: 23.1 µM [activator, partial curve, poor fit]",–
O=C(O)C1CCC(=O)N1Cc1ccc(F)cc1 (configuration not stated),inactive,–
COc1c(C)c2c(c(O)c1CC=C(C)CCC(=O)OCCN1CCOCC1)C(=O)OC2,inactive,–
COc1cc(C2C3=C(Nc4ncnn42)c2ccccc2CC3)cc(OC)c1OC (configuration not stated),active: 0.82 µM,–
Cc1ccc(N2C(=O)CSC2c2cccnc2)c(Cl)c1 (configuration not stated),"inconclusive: 18.4 µM [activator, single point]",–
C=CCn1c(COc2ccccc2)nnc1SC(C)C(=O)N/N=C/c1cc(Cl)ccc1O (configuration not stated),"inconclusive: 16.4 µM [activator, single point]",–
CC1CCCN(S(=O)(=O)c2ccc3c(c2)c(=O)nc2ccc(Cl)cn23)C1 (configuration not stated),"inconclusive: 11.6 µM [activator, partial curve, poor fit]",–
CCN(CC)S(=O)(=O)c1ccc2[nH]c(=O)c3ccccc3c2c1,"inconclusive: 14.6 µM [activator, single point]",–
N=c1nc(N)nc2n1NC(c1ccc(F)cc1)=CS2,inactive,–
CCCn1nc(C(=O)NC2CCCCCC2)c2ccccc2c1=O,inactive,–
CN1CCN(NC(=O)CN2C(=O)/C(=C/c3ccccc3Cl)SC2=S)CC1,inactive,–
COc1ccc(CCNC(=O)Cc2c(Cl)cccc2Cl)cc1,"inconclusive: 0.0103 µM [activator, full curve, poor fit]",–
COn1c(SCc2ccc(C)cc2C)nc2ccccc2c1=O,"inconclusive: 18.4 µM [activator, single point]",–
Cc1ccc(S(=O)(=O)N2CCCCC2)cc1NC(=O)Cn1cc(C(F)(F)F)ccc1=O,"inconclusive: 0.731 µM [activator, partial curve, poor fit]",–
C/C(=N\NC(=O)c1cccnc1)c1cc(C)oc1C,active: 20.6 µM,–
Cc1ccc(Nc2nc(Cl)nc3ncn(C)c23)c(C)c1,"inconclusive: 23.1 µM [activator, partial curve, poor fit]",–
CCNC(=O)c1ccc(CSc2ccc(Cl)cc2)cc1,"inconclusive: 29.1 µM [activator, single point]",–
O=C(c1ccc([N+](=O)[O-])cc1[N+](=O)[O-])n1cnc2ccccc21,"inconclusive: 29.1 µM [activator, single point]",–
CCN1CC(CN(C)Cc2nc(-c3ccc(C(F)(F)F)cc3)no2)CC1=O (configuration not stated),"inconclusive: 32.6 µM [activator, single point]",–
